In paper PMC11001197, “The PII protein interacts with the Amt ammonium transport and modulates nitrate/nitrite assimilation in mycobacteria” (Frontiers in Microbiology, 2024) one finds binding data, which are given here for 1 substance.

Chains of the proteins cited; added tags and fusions are not shown.
UniProt P96890: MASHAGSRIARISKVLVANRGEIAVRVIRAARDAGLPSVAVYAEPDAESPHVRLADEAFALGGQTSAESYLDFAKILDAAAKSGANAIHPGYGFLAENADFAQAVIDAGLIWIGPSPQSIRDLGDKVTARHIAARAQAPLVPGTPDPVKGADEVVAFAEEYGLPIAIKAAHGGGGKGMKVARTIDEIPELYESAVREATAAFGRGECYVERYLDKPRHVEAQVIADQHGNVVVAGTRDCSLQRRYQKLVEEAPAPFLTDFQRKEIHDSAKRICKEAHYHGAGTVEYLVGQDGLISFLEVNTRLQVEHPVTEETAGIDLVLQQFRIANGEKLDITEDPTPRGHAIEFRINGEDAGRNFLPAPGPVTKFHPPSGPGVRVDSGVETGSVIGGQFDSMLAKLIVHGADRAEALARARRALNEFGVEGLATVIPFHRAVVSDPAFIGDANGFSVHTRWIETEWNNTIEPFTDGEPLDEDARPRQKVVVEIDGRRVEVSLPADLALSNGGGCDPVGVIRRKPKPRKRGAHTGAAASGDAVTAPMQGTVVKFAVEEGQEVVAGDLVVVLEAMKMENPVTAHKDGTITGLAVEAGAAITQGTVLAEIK
UniProt P9WN31: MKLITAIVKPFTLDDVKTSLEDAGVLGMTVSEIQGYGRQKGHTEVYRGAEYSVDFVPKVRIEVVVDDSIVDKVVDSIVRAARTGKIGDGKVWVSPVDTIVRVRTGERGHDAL

For the assay, the target named is M. tuberculosis AccA3, His tag fusion (α-subunit of the acyl-CoA carboxylases) (M. tuberculosis) (UniProt P96890). In words: pull-down; His-AccA3 as bait with PII in the presence of ADP instead of ATP (Supplementary Figure S2A); ADP concentration not stated; both purified.

No constants are given. Whether binding was seen depends on the method and setting.

“M. tuberculosis PII protein (GlnB, encoded by Rv2919c), without tags (from UniProt P9WN31 1-112)”: the binding entry is on record as “no binding (condition: in the presence of ADP)”.
